Test [1] concerns the target LRP1 (UniProt Q91ZX7). As to the kind of experiment: co-immunoprecipitation, western blots (FIG. 39B).
Test [2] deals with LRP1 (UniProt Q91ZX7). As to the kind of experiment: co-immunoprecipitation: LRP1-expressing RAW 264.7 cells incubated with enzyme, IP with anti-IDUA antibody, western blot for LRP1.

Chains of the proteins cited; added tags and fusions are not shown. Residues count along the entry.
UniProt Q91ZX7, residues 20-4545: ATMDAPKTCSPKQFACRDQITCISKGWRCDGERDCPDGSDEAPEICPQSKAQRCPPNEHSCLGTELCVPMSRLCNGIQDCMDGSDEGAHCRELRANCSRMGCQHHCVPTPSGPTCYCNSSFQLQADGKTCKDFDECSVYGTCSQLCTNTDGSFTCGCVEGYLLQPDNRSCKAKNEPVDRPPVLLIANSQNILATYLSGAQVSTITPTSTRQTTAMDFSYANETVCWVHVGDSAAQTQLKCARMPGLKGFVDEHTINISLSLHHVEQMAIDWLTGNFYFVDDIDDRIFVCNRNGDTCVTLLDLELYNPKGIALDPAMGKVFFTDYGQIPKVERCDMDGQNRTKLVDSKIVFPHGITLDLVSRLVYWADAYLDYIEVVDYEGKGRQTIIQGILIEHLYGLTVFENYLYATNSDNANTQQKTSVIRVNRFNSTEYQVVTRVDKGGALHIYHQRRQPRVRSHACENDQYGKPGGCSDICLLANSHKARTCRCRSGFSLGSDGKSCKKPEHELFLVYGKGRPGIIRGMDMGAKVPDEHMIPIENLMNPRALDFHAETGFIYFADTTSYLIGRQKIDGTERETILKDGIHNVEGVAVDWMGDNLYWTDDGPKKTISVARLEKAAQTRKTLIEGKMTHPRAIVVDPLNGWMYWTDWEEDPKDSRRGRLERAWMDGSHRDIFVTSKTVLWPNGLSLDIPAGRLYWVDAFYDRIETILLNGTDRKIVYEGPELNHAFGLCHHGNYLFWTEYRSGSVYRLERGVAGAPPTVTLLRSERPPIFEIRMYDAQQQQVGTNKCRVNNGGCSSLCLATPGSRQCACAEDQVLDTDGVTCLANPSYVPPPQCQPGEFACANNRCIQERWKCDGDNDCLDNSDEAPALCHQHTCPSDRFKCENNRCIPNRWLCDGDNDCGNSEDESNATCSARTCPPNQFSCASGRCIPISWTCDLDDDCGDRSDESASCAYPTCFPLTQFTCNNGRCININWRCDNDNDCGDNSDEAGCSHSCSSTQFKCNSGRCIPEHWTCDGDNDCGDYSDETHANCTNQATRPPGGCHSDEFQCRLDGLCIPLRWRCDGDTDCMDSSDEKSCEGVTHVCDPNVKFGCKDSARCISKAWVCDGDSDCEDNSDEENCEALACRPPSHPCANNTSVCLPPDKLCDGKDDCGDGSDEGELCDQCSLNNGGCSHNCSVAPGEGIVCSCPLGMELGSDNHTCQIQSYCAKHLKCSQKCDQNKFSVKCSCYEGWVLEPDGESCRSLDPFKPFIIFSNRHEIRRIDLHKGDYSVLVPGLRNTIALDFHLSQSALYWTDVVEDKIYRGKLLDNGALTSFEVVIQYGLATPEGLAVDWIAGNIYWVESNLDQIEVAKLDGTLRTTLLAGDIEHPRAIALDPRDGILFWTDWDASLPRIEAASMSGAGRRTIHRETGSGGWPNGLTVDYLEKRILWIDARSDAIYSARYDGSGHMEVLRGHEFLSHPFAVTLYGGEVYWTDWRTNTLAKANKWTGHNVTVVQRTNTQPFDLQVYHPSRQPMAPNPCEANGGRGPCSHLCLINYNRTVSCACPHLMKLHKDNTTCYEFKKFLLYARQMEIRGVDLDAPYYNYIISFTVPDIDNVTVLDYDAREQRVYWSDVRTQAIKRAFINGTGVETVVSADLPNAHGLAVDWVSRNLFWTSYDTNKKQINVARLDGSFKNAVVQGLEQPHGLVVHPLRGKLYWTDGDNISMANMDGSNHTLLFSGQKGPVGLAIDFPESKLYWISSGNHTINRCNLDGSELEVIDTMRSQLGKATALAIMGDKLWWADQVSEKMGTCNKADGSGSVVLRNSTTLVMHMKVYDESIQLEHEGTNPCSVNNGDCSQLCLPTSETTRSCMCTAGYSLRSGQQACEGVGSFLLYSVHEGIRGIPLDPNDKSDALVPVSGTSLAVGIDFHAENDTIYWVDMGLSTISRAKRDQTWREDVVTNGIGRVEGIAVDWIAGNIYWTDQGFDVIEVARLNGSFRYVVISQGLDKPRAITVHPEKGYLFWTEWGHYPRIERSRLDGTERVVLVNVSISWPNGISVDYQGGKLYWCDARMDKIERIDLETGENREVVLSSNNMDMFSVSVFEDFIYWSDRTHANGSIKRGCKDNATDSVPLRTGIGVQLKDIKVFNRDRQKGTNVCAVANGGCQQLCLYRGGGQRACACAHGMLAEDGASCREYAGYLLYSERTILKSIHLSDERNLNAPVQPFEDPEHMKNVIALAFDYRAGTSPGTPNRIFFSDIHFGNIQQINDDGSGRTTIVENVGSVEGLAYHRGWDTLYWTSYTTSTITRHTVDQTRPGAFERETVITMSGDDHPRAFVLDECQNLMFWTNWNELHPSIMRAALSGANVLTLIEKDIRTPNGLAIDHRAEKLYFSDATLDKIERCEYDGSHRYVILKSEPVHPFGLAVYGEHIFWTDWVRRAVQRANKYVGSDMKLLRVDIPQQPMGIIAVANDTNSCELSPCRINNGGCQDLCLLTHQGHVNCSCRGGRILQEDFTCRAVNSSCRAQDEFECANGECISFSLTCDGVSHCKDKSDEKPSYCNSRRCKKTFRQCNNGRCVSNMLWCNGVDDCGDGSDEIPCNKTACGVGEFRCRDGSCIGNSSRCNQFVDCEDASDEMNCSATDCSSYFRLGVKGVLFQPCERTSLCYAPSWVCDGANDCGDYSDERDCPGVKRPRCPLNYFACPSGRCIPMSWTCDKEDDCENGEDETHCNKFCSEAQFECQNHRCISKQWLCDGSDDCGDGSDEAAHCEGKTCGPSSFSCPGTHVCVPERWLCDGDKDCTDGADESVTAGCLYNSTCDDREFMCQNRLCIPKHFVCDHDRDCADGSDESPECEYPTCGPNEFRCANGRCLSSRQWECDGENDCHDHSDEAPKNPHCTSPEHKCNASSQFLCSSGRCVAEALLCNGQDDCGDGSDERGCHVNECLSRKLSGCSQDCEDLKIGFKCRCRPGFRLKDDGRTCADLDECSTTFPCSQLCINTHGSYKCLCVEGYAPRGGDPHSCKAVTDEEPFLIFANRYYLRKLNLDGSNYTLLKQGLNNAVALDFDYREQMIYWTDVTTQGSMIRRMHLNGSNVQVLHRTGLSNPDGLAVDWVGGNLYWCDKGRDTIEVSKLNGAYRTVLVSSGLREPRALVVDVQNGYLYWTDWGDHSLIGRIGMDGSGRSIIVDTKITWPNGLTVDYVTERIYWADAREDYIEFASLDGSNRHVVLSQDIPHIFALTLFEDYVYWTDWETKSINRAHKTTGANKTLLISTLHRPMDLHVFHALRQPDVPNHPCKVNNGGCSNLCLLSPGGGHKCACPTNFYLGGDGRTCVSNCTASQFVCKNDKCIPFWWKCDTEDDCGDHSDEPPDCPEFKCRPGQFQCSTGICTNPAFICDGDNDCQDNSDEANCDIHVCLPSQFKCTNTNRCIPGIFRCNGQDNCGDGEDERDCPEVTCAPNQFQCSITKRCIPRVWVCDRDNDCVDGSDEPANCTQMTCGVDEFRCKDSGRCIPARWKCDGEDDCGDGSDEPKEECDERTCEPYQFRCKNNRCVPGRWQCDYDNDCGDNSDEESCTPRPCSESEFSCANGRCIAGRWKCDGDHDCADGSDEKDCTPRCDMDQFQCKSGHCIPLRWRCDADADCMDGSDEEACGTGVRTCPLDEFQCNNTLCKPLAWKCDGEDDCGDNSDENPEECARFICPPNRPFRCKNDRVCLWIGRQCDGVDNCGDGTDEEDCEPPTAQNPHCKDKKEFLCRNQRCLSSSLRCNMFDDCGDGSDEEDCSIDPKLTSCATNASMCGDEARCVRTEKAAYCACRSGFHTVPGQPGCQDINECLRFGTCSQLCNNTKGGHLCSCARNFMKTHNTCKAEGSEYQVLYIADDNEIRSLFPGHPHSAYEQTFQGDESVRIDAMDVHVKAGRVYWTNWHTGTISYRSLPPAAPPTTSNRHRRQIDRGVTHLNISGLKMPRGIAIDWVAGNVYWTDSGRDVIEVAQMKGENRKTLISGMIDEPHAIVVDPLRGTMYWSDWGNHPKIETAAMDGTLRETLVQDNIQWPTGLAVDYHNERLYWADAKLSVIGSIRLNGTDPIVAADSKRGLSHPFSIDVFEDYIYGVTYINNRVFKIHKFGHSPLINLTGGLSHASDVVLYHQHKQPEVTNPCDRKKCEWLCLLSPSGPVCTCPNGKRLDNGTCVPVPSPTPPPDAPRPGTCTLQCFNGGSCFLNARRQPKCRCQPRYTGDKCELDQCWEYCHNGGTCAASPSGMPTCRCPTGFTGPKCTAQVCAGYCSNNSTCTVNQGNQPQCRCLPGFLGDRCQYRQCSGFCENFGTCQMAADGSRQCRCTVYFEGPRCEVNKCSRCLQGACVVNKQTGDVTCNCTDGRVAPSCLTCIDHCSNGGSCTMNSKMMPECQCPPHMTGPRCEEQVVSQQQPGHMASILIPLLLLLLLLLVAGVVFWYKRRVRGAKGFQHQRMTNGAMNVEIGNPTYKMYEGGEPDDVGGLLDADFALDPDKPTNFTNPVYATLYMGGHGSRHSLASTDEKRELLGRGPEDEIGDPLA

No constants are given. Whether binding was seen depends on the method and setting. Binding seen in cells or lysates may run through a third protein. Some binding calls cover weakened binding; strength is not graded here. Where a sequence is shown, tags or fusion partners need not be part of it.

B1: An2-IDUA fusion protein (Angiopep-2 fused to the N-terminus of human alpha-L-iduronidase) (enzyme)
chain: TFFYGGSRGKRNNFKTEEYAPHLVHVDAARALWPLRRFWRSTGFCPPLPHSQADQYVLSWDQQLNLAYVGAVPHRGIKQVRTHWLLELVTTRGSTGRGLSYNFTHLDGYLDLLRENQLLPGFELMGSASGHFTDFEDKQQVFEWKDLVSSLARRYIGRYGLAHVSKWNFETWNEPDHHDFDNVSMTMQGFLNYYDACSEGLRAASPALRLGGPGDSFHTPPRSPLSWGLLRHCHDGTNFFTGEAGVRLDYISLHRKGARSSISILEQEKVVAQQIRQLFPKFADTPIYNDEADPLVGWSLPQPWRADVTYAAMVVKVIAQHQNLLLANTTSAFPYALLSNDNAFLSYHPHPFAQRTLTARFQVNNTRPPHVQLLRKPVLTAMGLLALLDEEQLWAEVSQAGTVLDSNHTVGVLASAHRPQGPADAWRAAVLIYASDDTRAHPNRSVAVTLRLRGVPPGPGLVYVTRYLDNGLCSPDGEWRRLGRPVFPTAEQFRRMRAAEDPVAAAPRPLPAGGRLTLRPALRLPSLLLVHVCARPEKPPGQVTRLRALPLTQGQLVLVWSDEHVGSKCLWTYEIQFSQDGKAYTPVSRKPSTFNLFVFSPDTGAVSGSYRVRALDYWARPGPFSDPVPYLEVPVPRGPPSPGNP
As to B1, the binding entry in test [1] and in test [2] was “binds” throughout.
